Laboratory results reported in patent publication US20060030524A1, “Treatment of systemic lupus erythematosus by down-regulating the autoimmune response to autoantigens” (Yeda Research and Development Co. Ltd., priority 1998, published 2006).
The comparison behind a weaker result is the experiment's own reference, which may not be listed here. For part of these data: For at least one entry, the source does not settle the construct or the ends of the probe.

Chains of the proteins cited; added tags and fusions are not shown. Chains listed by the source or under a name are the forms on record and can include a tag or linker.
UniProt P02340, whole entry: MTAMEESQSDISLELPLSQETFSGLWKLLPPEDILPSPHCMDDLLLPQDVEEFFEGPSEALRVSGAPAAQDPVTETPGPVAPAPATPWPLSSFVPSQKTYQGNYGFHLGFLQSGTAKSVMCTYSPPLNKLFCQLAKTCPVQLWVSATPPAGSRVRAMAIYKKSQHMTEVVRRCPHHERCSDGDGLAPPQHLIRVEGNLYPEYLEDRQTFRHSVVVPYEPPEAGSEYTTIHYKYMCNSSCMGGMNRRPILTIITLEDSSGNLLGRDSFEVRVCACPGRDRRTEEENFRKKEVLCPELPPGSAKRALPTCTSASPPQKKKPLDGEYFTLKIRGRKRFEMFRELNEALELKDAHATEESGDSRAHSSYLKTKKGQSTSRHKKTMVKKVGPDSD
IDI-1 monoclonal antibody (VH/VL) (Mus musculus), one chain, as listed by the source, chain 2 of 2: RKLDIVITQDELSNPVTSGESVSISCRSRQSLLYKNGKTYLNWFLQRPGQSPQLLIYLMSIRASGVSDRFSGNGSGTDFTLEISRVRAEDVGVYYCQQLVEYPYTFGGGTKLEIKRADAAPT
IDI-2 monoclonal antibody (VH/VL) (Mus musculus), one chain, as listed by the source, chain 2 of 2: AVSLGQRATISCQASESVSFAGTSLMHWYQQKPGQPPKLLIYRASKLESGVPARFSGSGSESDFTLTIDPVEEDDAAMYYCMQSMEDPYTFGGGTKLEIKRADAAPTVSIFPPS
IDI-1 monoclonal antibody (VH/VL) (Mus musculus), one chain, as listed by the source, chain 1 of 2: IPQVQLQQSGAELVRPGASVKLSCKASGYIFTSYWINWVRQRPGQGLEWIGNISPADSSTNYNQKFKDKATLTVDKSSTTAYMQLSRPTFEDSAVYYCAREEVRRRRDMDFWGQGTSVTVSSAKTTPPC
IDI-2 monoclonal antibody (VH/VL) (Mus musculus), one chain, as listed by the source, chain 1 of 2: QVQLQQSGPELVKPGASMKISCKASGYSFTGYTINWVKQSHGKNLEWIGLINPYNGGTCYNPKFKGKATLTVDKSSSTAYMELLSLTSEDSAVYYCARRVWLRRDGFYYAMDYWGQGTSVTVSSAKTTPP

Key:
Assay in all cases: EMSA
[1] = system: IDI-1 monoclonal antibody (VH/VL) (Mus musculus); conditions: bound less well than dG; purified native protein; protein details: hybridoma mAb, variable regions only listed; single-stranded DNA
[2] = system: IDI-2 monoclonal antibody (VH/VL) (Mus musculus); conditions: bound less well than dG; purified native protein; protein details: hybridoma mAb, variable regions only listed; single-stranded DNA
p53 (Mus musculus) = p53 (Mus musculus) (UniProt P02340); conditions: bound less well than dG; purified recombinant protein; protein details: expressed in E. coli BL21(DE3); single-stranded DNA

Measured: binding result

AAAAAAAAAAAAAAAAAAAA [oligo dA 20-mer]
binds more weakly: [1] | [2] | p53 (Mus musculus)

TTTTTTTTTTTTTTTTTTTT [oligo dT 20-mer]
binds more weakly: [1] | [2] | p53 (Mus musculus)
